# Measurements reported in PubChem BioAssay AID1487 (National Center for Advancing Translational Sciences (NCATS), 2009).
# Some of the results follow. Shown are side measurements of this screen, not its main read-out; they come without a call. Most of these compounds were active or inconclusive in the main read-out, so they are no random draw. Words in brackets tell the shape of the fitted curve; partial curves, single points and poor fits give uncertain potencies.
# Test: qHTS Assay for Modulators of Lamin A Splicing
# Conditions: HeLa LMNA splicing GFP/RFP minigene ratio, 48 h
# Procedure, shortened: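 S3 HeLa cells stably expressing lamin A-EGFP splicing minigene plus DsRed2, 600 cells/well, 48 h compound exposure at 37C. Laser-scanning cytometry; analysed as GFP (500-530 nm)/RFP (575-640 nm) total intensity ratio; 0.5% DMSO vehicle.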
# [1] = measured here: GFP splicing reporter channel
# [2] = measured here: RFP viability control channel
SMILES,AC50 [1],AC50 [2]
COc1ccc(C)cc1NC(=O)CSc1nnc(-c2ccco2)n1Cc1ccco1,"14.1 µM [rising, single point]","12.6 µM [rising, single point]"
CCOC(=O)c1c(-c2ccccc2)csc1NC(=O)CCN1CCOCC1,,"12.6 µM [rising, partial curve]"
CCC(C)C(=O)OC1CCC=C2C=CC(C)C(CCC3CC(O)CC(=O)O3)[C@@H]21 (stereo not given in full),"35.5 µM [falling, single point]","35.5 µM [falling, single point]"
Cc1ccc(N=c2oc3cc(O)ccc3cc2C(N)=O)cc1,"12.6 µM [rising, partial curve, poor fit]","25.1 µM [rising, single point]"
COc1ccccc1Oc1cc(C#N)c(C#N)cc1-n1nnc2ccccc21,"22.4 µM [rising, partial curve, poor fit]","35.5 µM [rising, single point]"
CSc1nnc(-c2ccccc2SC)o1,,"0.00282 µM [falling, full curve, poor fit]"
CC(=O)N1CCCc2ccc(NC(=O)c3ccc(OC(C)C)cc3)cc21,"25.1 µM [falling, partial curve, poor fit]","0.00708 µM [falling, full curve]"
Cc1ccc2nc(COc3ccccc3NC(=O)Nc3ccc(F)c(Cl)c3)cc(=O)n2c1,"35.5 µM [falling, single point]","35.5 µM [falling, partial curve]"
c1ccc(CCn2nnnc2C(c2cccnc2)N2CCN(c3nc4ccccc4s3)CC2)cc1 (stereo not given),"14.1 µM [rising, partial curve]","15.8 µM [rising, partial curve]"
Cc1ccc(NS(=O)(=O)c2cc(C(=O)NCCSC3CCCCC3)ccc2C)cc1,,"11.2 µM [rising, partial curve]"
Cc1ccccc1S(=O)(=O)Cc1ccc(C(=O)N2CCN(c3cccc(C)c3C)CC2)o1,"15.8 µM [falling, partial curve]","2.82 µM [rising, partial curve]"
COc1cccc2cc(-c3nc4sc5c(c4c(=O)[nH]3)CCC(C(C)(C)C)C5)c(=O)oc12 (stereo not given),"5.62 µM [falling, partial curve]",
Cc1cc(O)cc(=O)n1Cc1ccco1,"0.0282 µM [rising, full curve, poor fit]","0.0282 µM [rising, full curve, poor fit]"
O=C(NCc1cccc(C(F)(F)F)c1)c1cccc(S(=O)(=O)NCc2ccccc2)c1,,"35.5 µM [rising, single point]"
O=C(/C=C/c1ccc(F)cc1)Nc1cccc(S(=O)(=O)Nc2cccc(C(F)(F)F)c2)c1,,"1.41 µM [rising, full curve, poor fit]"
Nc1nc(SCC(=O)Nc2ccccc2Sc2ccccc2)n[nH]1,,"12.6 µM [rising, partial curve, poor fit]"

SMILES,AC50 [1],AC50 [2]
COc1ccc(OC)c(CCNC(=O)c2nc(-c3ccc(Cl)cc3)n3c2CCCCC3)c1,"12.6 µM [rising, partial curve]","14.1 µM [rising, single point]"
O=C(NCCC1=CCCCC1)c1ccc(F)c(S(=O)(=O)N2CCOCC2)c1,"11.2 µM [rising, partial curve, poor fit]","15.8 µM [rising, partial curve]"
N/C(Cc1ccc([N+](=O)[O-])cc1)=N\OC(=O)COc1ccc2ccccc2c1,"28.2 µM [rising, single point]","35.5 µM [rising, single point]"
CSc1nc2ccccc2n1CC(=O)Nc1ccc(C)c(C)c1,,"22.4 µM [rising, single point]"
N#Cc1c(NC(=O)c2ccc(Cn3cc(Br)cn3)o2)sc2c1CCCCCC2,,"8.91 µM [rising, partial curve]"
Cc1cc(C(=O)CSc2nc(N)cc(N)n2)c(C)n1-c1cccc(F)c1,"0.355 µM [rising, partial curve]","14.1 µM [rising, partial curve]"
Cc1ccc(C[n+]2cccc(-c3ccccc3)c2)c(C)c1,"3.98 µM [rising, full curve]","6.31 µM [rising, full curve]"
Fc1ccc(-c2noc(C3CCN(Cc4cccnc4)CC3)n2)cc1,,"15.8 µM [rising, partial curve]"
Cc1ccc(OCC(=O)Nc2ccc(N3CCN(C(=O)c4ccc(C)cc4)CC3)cc2)cc1,,"4.47 µM [falling, partial curve, poor fit]"
Cc1ccc(C(=O)CSc2nc(C)cc(C)c2C(=O)Nc2cccc(C)c2)cc1,,"12.6 µM [rising, single point]"
Cc1ccc2nc(Cl)c(/C=N/Nc3nc(C)cc(C)n3)c(=O)n2c1,"8.91 µM [rising, partial curve, poor fit]","12.6 µM [rising, partial curve]"
COC(=O)C1=C(C)N(C)C(=S)N(C)C1c1cccc(Br)c1 (stereo not given),,"0.562 µM [rising, partial curve]"
CN(C)C=Nc1ncc2c3ccccc3n(CCN(C)C)c2c1C#N,,"35.5 µM [rising, single point]"
Cc1ccc(-c2csc(NC(=O)c3ccc(S(=O)(=O)N4CCc5ccccc54)cc3)n2)cc1,"2 µM [rising, full curve]","7.08 µM [rising, partial curve]"
CCOC(=O)N1CCC(NC(=O)c2ccc3c(c2)sc2nc(-c4cccc(OC)c4)cn23)CC1,"35.5 µM [falling, single point]","3.55 µM [rising, single point]"
Cc1ccccc1N1CCN(C2=NC(=O)/C(=C\c3cccs3)S2)CC1,"31.6 µM [rising, single point]","31.6 µM [rising, single point]"

# Not a retest: entries from further up.
SMILES,AC50 [1],AC50 [2]
Cc1ccc2nc(Cl)c(/C=N/Nc3nc(C)cc(C)n3)c(=O)n2c1,"8.91 µM [rising, partial curve, poor fit]","12.6 µM [rising, partial curve]"
COC(=O)C1=C(C)N(C)C(=S)N(C)C1c1cccc(Br)c1 (stereo not given),,"0.562 µM [rising, partial curve]"
